Laboratory results reported in US6555501B1, “4-trifluoromethyl-3-oxazolylpyridines, processes for their preparation, compositions comprising them and their use as pesticides” (Hoechst Schering AgrEvo GmbH, priority 1998, dated 2003).
Some entries share one result that the patent states for a list of compounds. Some ranges recur; such a range may be that of the whole group of compounds.

How the values were obtained:
Format in all cases: in vivo
[1] = system: black bean aphids (Aphis fabae); assay: Root-systemic activity against black bean aphids on broad bean; conditions: 30 ppm (content of active compound); 4 ml solution pipetted into the bottle with Vicia faba; after 3 and 6 days storage
Method: Germinated broad bean seeds (Vicia faba) with radicles were transferred into brown glass bottles filled with tap water. Four milliliters of an aqueous solution of the formulated preparation to be examined were pipetted into the brown glass bottle. The broad bean was subsequently heavily populated with approximately 100 black bean aphids (Aphis fabae). Plants and animals were then stored in a climatized chamber (16 hours of light/day, 25° C., 40-60% relative atmospheric humidity). After 3 and 6 days storage, the root-systemic activity of the preparation on the aphids was determined. At a concentration of 30 ppm (based on the content of active compound), the preparations of Example Nos. 1/53, 1/26, 1/37, 1/78, 1/136, 1/56, 1/94, 1/174, 1/14, 1/187, 1/84, 1/52, 1/82, 1/70, 1/32, 3/74, 1/54, 1/81, 1/42, 3/227, 3/161 effected a mortality of 90-100% among the aphids by root-systemic action.

[2] = system: larvae (L3 stage) of the rice leafhopper species Nilaparvata lugens; assay: Rice leafhopper test on dipped rice plants; conditions: 300 ppm (content of active compound), rice leaves dipped 5 seconds, after 6 days storage
Method: The leaves of 12 rice plants having a stem length of 8 cm were dipped for 5 seconds into an aqueous solution of the formulated preparation to be examined. After the solution had dripped off, the rice plants treated in this manner were placed in a Petri dish and populated with approximately 20 larvae (L3 stage) of the rice leafhopper species Nilaparvata lugens. The Petri dish was closed and stored in a climatized chamber (16 hours of light/day, 25° C., 40-60% relative atmospheric humidity). After 6 days storage, the mortality among the leafhopper larvae was determined. At a concentration of 300 ppm (based on the content of active compound), the preparations of Example Nos. 1/53, 1/26, 1/164, 1/174, 1/82, 1/42 effected a mortality of 90-100%.

[3] = system: black bean aphids (Aphis fabae); assay: Black bean aphid dip test on broad bean (plants and aphids dipped in the preparation); conditions: 300 ppm (content of active compound); Vicia faba plants and aphids dipped 5 seconds; after 3 and 6 days storage
Method: Germinated broad bean seeds (Vicia faba) with radicles were transferred into brown glass bottles filled with tap water and subsequently populated with approximately 100 black bean aphids (Aphis fabae). Plants and aphids were then dipped for 5 seconds into an aqueous solution of the formulated preparation to be examined. After the solution had dripped off, plants and animals were kept in a climatized chamber (16 hours of light/day, 25° C., 40-60% relative atmospheric humidity). After 3 and 6 days storage, the effect of the preparation on the aphids was determined. At a concentration of 300 ppm (based on the content of active compound), the preparations of Example Nos. 1/37, 1/78, 1/136, 1/94, 1/174, 1/14, 1/125, 1/187, 1/17, 1/84, 1/52, 1/82, 1/70, 3/74, 1/54, 1/81, 1/42, 3/161, 1/186 effected a mortality of 90-100% among the aphids. (The active compounds are numbered with the Table/No. in the table).

Row | SMILES | mortality among the aphids by root-systemic action [1] | mortality among the leafhopper larvae [2] | mortality among the aphids [3]
1 | OCc1cnc(-c2cnccc2C(F)(F)F)o1 [1/174] | 90-100% | 90-100% | 90-100%
2 | CN(Cc1cnc(-c2cnccc2C(F)(F)F)o1)S(C)(=O)=O [1/52] | 90-100% |  | 90-100%
3 | C=CCOC(=O)N(C)Cc1cnc(-c2cnccc2C(F)(F)F)o1 [1/17] |  |  | 90-100%
4 | COCc1cnc(-c2cnccc2C(F)(F)F)o1 [1/78] | 90-100% |  | 90-100%
5 | CC(C)C(=O)N(C)Cc1cnc(-c2cnccc2C(F)(F)F)o1 [1/187] | 90-100% |  | 90-100%
6 | CC(=O)OCc1cnc(-c2cnccc2C(F)(F)F)o1 [1/186] |  |  | 90-100%
7 | CNCc1cnc(-c2cnccc2C(F)(F)F)o1 [1/56] | 90-100% |  | 
8 | FC(F)(F)c1ccncc1-c1ncc(C(Br)Br)o1 [1/26] | 90-100% | 90-100% | 
9 | CC(=O)N(C)Cc1cnc(-c2cnccc2C(F)(F)F)o1 [1/14, N-Acetyl, N-methyl-5-aminomethyl-2-(4-trifluoromethyl-3-pyridyl)-oxazole] | 90-100% |  | 90-100%
10 | CCC(=O)N(C)Cc1cnc(-c2cnccc2C(F)(F)F)o1 [1/84] | 90-100% |  | 90-100%
11 | CN(Cc1cnc(-c2cnccc2C(F)(F)F)o1)C(=O)C1CC1 [1/125] |  |  | 90-100%
12 | CCOC(=O)Cc1nc(-c2cnccc2C(F)(F)F)oc1C [3/161] | 90-100% |  | 90-100%
13 | CSCc1cnc(-c2cnccc2C(F)(F)F)o1 [1/37] | 90-100% |  | 90-100%
14 | CC(C)CSCc1cnc(-c2cnccc2C(F)(F)F)o1 [1/94] | 90-100% |  | 90-100%
15 | CCOC(=O)N(C)Cc1cnc(-c2cnccc2C(F)(F)F)o1 [1/82] | 90-100% | 90-100% | 90-100%
16 | COCC(=O)N(C)Cc1cnc(-c2cnccc2C(F)(F)F)o1 [1/70] | 90-100% |  | 90-100%
17 | CCCS(=O)(=O)Cc1cnc(-c2cnccc2C(F)(F)F)o1 [1/54] | 90-100% |  | 90-100%
18 | FC(F)(F)CSCc1cnc(-c2cnccc2C(F)(F)F)o1 [1/32] | 90-100% |  | 
19 | CCC[S+]([O-])Cc1cnc(-c2cnccc2C(F)(F)F)o1 (stereo not drawn) [1/81] | 90-100% |  | 90-100%
20 | [O-][S+](Cc1cnc(-c2cnccc2C(F)(F)F)o1)CC(F)(F)F (stereo not drawn) [1/42] | 90-100% | 90-100% | 90-100%
21 | Cc1oc(-c2cnccc2C(F)(F)F)nc1C(=O)N(C)C [3/74] | 90-100% |  | 90-100%
22 | Cc1cnc(-c2cnccc2C(F)(F)F)o1 [1/53, 5-Methyl-2-(4-tifluoromethyl-3-pyridyl)-oxazole] | 90-100% | 90-100% | 
